From EP0866654B1
These are yes or no findings as the source states them, for the method shown. Some results given as binding are weak or reduced against the parent protein; the word gives no strength.

Protein sequences, listed by entry. Tags and fused reporters are not part of them. Lines headed by an entry give the natural chain unless they say otherwise; changes in a name come on top.
UniProt P02763: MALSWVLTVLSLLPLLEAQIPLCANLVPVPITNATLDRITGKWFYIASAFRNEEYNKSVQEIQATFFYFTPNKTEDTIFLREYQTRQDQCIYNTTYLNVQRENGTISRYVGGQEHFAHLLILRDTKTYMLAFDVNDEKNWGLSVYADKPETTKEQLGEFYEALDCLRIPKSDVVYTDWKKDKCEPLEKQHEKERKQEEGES

Target: T1, asialoglycoprotein receptor (human) (UniProt P07306+P07307)
T1 sequence (looked up) 1: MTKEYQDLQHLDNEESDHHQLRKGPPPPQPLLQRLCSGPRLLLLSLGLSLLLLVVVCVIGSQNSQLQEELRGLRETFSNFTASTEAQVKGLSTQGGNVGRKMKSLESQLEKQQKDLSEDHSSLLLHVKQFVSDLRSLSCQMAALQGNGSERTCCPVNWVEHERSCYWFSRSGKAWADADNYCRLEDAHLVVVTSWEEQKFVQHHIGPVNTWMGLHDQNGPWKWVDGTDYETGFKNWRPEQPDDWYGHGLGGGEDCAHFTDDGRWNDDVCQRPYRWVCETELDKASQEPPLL
T1 sequence (looked up) 2: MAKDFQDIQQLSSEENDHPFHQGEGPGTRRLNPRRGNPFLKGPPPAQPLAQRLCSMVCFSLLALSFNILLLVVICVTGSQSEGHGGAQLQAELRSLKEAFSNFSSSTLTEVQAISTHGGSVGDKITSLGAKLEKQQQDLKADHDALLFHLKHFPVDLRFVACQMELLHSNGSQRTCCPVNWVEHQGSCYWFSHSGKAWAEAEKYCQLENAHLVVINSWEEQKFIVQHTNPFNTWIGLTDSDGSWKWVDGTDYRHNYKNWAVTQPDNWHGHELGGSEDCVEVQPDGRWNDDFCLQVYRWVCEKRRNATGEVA
Assay: radiolabelled ligand binding to hepatoma cell lines; HepG2 identified as receptor-expressing

binding: binds
Substance: [^121I]-labeled asialo-orsomucoid (from UniProt P02763 19-201) (ligand)
